Source: patent publication US10759779B2, “Crystalline form of orexin receptor antagonist, processes for preparation thereof and use thereof” (priority 2017, dated 2020)

Test: Residual solvents
Format: physicochemical

Compound | Residual solvents | -heptane residue (ICH limit 5000 ppm) | ethyl acetate residue (ICH limit 5000 ppm)
Cc1ncc(OC[C@@]2(c3cccc(F)c3)C[C@H]2C(=O)Nc2ccc(F)cn2)c(C)n1 [Form CS2, (1R,2S)-2-{[(2,4-dimethylpyrimidin-5-yl)oxy]methyl}-2-(3-fluorophenyl)-N-(5-fluoropyridin-2-yl)cyclopropanecarboxamide] | no residual solvents | – | –
Cc1ncc(OC[C@@]2(c3cccc(F)c3)C[C@H]2C(=O)Nc2ccc(F)cn2)c(C)n1 [Amorphous solid, (1R,2S)-2-{[(2,4-dimethylpyrimidin-5-yl)oxy]methyl}-2-(3-fluorophenyl)-N-(5-fluoropyridin-2-yl)cyclopropanecarboxamide, reference compound] | – | 46596.16 ppm | 1260.01 pm
